Data taken from patent publication US11542257B2, “Arylnaphthalene compounds as vacuolar-ATPase inhibitors and the use thereof” (priority 2018, dated 2023).

What was measured:
[1] = tested on: endosomal acidification in A549 cells; experiment: Inhibition of cellular endosomal acidification, acridine orange (AO), A549 cells; format: cell-based; conditions: cytotoxicity CC50 vs endosomal acidification IC50
[2] = tested on: endosomal acidification in HEK293 cells; format: cell-based

| SMILES | A549 SI [1] | fold less potent in HEK 293 cells than in A549 cells (endosomal acidification) [2] | fold less potent than diphyllin (endosomal acidification) [2] |
| --- | --- | --- | --- |
| COc1cc2c(O)c3c(c(-c4ccc5c(c4)OCO5)c2cc1OC)C(=O)OC3 [Compound 2a, 9-(benzo[d][1,3]dioxol-5-yl)-4-hydroxy-6,7-dimethoxynaphtho[2,3-c]furan-1(3H)-one, reference compound] | 336 |  |  |
| COc1cc2c(OC)c3c(c(-c4ccc5c(c4)OCO5)c2cc1OC)C(=O)OC3 [Compound 2b, 9-(benzo[d][1,3]dioxol-5-yl)-4,6,7-trimethoxynaphtho[2,3-c]furan-1(3H)-one] | >1720 | roughly 4 fold |  |
| CCOc1c2c(c(-c3ccc4c(c3)OCO4)c3cc(OC)c(OC)cc13)C(=O)OC2 [Compound 2c, 9-(benzo[d][1,3]dioxol-5-yl)-4-ethoxy-6,7-dimethoxynaphtho[2,3-c]furan-1(3H)-one] | >1480 | roughly 4 fold |  |
| C#CCCCOc1c2c(c(-c3ccc4c(c3)OCO4)c3cc(OC)c(OC)cc13)C(=O)OC2 [Compound 2e, 9-(benzo[d][1,3]dioxol-5-yl)-6,7-dimethoxy-4-(pent-4-yn-1-yloxy)naphtho[2,3-c]furan-1(3H)-one] | >1180 |  |  |
| COc1cc2c(OCCCN3CCOCC3)c3c(c(-c4ccc5c(c4)OCO5)c2cc1OC)C(=O)OC3 [Compound 2g, 9-(benzo[d][1,3]dioxol-5-yl)-6,7-dimethoxy-4-(3-morpholinopropoxy)naphtho[2,3-c]furan-1(3H)-one] | >1780 |  |  |
| CCOC(=O)CN1CCN(CCCOc2c3c(c(-c4ccc5c(c4)OCO5)c4cc(OC)c(OC)cc24)C(=O)OC3)CC1 [Compound 2h, ethyl 2-(4-(3-((9-(benzo[d][1,3]dioxol-5-yl)-6,7-dimethoxy-1-oxo-1,3-dihydronaphtho[2,3-c]furan-4-yl)oxy)propyl)piperazin-1-yl)acetate] | >990 |  |  |
| COc1cc2c(O)c3c(c(-c4ccc5c(c4)OCO5)c2cc1OC)C(=O)N(N)C3 [Compound 3a, 2-amino-9-(benzo[d][1,3]dioxol-5-yl)-4-hydroxy-6,7-dimethoxy-2,3-dihydro-1H-benzo[f]isoindol-1-one] | 3.40 |  | 18 fold |
| COc1cc2c(O)c3c(c(-c4ccc5c(c4)OCO5)c2cc1OC)C(=O)N(/N=C/c1cccnc1)C3 [Compound 3c, (E)-9-(benzo[d][1,3]dioxol-5-yl)-4-hydroxy-6,7-dimethoxy-2-((pyridin-3-ylmethylene)amino)-2,3-dihydro-1H-benzo[f]isoindol-1-one] | 4.32 |  | 18 fold |
| COc1cc2c(O)c3c(c(-c4ccc5c(c4)OCO5)c2cc1OC)C(=O)N(/N=C/c1ccc(Cl)cc1)C3 [Compound 3d, (E)-9-(benzo[d][1,3]dioxol-5-yl)-2-((4-chlorobenzylidene)amino)-4-hydroxy-6,7-dimethoxy-2,3-dihydro-1H-benzo[f]isoindol-1-one] | 9.24 |  | 18 fold |
